Values from PubChem BioAssay AID1671195 (Yale University, 2021).

Assay: 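Knockdowns that increase or decrease uptake of fluorescent LDL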 (primary screen)
System: human Huh7 hepatoma cells
Reagents: siRNA pool against human genes, 18 nM
Timing: about 2 to 2.5 days of knockdown, then 8 h LDL uptake
Challenge: DiI-labelled LDL at 30 µg/ml for 8 h, in lipoprotein-deficient serum medium
Read-out: 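Per-cell DiI-LDL intensity by automated imaging; well means scaled to the plate median and given as a robust z-score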
Reading the numbers: robust z-score: higher = more LDL uptake after knockdown
Call rule: 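a gene counts as active if at least two replicate z-scores exceed ±2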
This is a random part of about 22,000 deposited reagents. About 1,510 of all reagents (6.9%) were called active. 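Active includes knockdowns raising or lowering LDL uptake; positive z-scores mean more uptake, negative mean less.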

| target | robust z-score, replicate 1 | robust z-score, replicate 2 | robust z-score, replicate 3 | Outcome |
| --- | --- | --- | --- | --- |
| SHE | 1.27 | 0.562 | -0.312 | inactive |
| PCYT1B | 0.235 | 0.124 | 0.791 | inactive |
| IFIT1 | -0.486 | 0.761 | -0.491 | inactive |
| STBD1 | -0.956 | 1.14 | -0.0809 | inactive |
| FAM107A | -0.633 | -0.646 | -0.886 | inactive |
| SLC52A1 | -0.578 | -0.438 | -0.892 | inactive |
| CWC25 | 0.218 | -0.444 | 0.629 | inactive |
| LOC390254 (retired record) | 1.09 | 0.59 | 0.729 | inactive |
| LOC439985 (retired record) | 4.69 | 4.1 | 3.61 | active |
| SNUPN | 7.41 | 6.81 | 8.33 | active |
| RO60 | -0.309 | 0.233 | 0.554 | inactive |
| TUT1 | 0.783 | 0.845 | 0.719 | inactive |
| YME1L1 | 0.33 | 1.89 | 0.515 | inactive |
| RBM15 | -0.0265 | 0.18 | 0.366 | inactive |
| AIMP2 | -0.615 | -0.872 | -0.401 | inactive |
| FRY | 1.33 | 1.61 | 1.19 | inactive |
| TAAR9 | 1.62 | 1.23 | 2.36 | inactive |

Reagents listed above with an active call, once more:
| target | robust z-score, replicate 1 | robust z-score, replicate 2 | robust z-score, replicate 3 | Outcome |
| --- | --- | --- | --- | --- |
| LOC439985 (retired record) | 4.69 | 4.1 | 3.61 | active |
| SNUPN | 7.41 | 6.81 | 8.33 | active |

The results go on:
| target | robust z-score, replicate 1 | robust z-score, replicate 2 | robust z-score, replicate 3 | Outcome |
| --- | --- | --- | --- | --- |
| RAB17 | 0.931 | 0.3 | 0.339 | inactive |
| TMEM161B | -0.586 | -1.78 | -0.481 | inactive |
| INPP4A | -0.842 | -0.0333 | -0.329 | inactive |
| HOXA3 | -0.486 | -0.981 | -1.23 | inactive |
| ZNF207 | 2.42 | -0.248 | 0.929 | inactive |
| PIGM | 0.866 | -0.301 | -0.193 | inactive |
| BAG2 | 0.0762 | -0.461 | -0.236 | inactive |
| LOC613206 | 1.18 | 0.858 | 1.14 | inactive |
| AP4M1 | -0.706 | -1.39 | -0.921 | inactive |
| FAH | 0.867 | 1.67 | 0.969 | inactive |
| FBXL15 | -0.554 | -0.231 | -0.316 | inactive |
